Values from PubChem BioAssay AID1259405 (NCATS, 2018)
Test: 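Mouse-designed siRNAs used to find CHO productivity engineering targets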 (primary screen). System: Chinese hamster CHO-K1 ovary cells with stable secreted eGFP expression. Reagents: single siRNA against mouse genes, 0.8 pmol siRNA per well (2 µl of 400 nM stock). Timing: 3 days. Read-out: 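Per-well intracellular GFP measured by laser scanning cytometry, plus viability from ATP luminescence, each relative to plate median of non-targeting control wells, in %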. Scale: GFP, % of control: higher = more GFP per well, higher productivity; viability (ATP), % of control: higher = more viable cells (more ATP). Rule for the call: 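Called active when intracellular GFP, relative to negative control, is at or above 120%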.
This is a random part of about 50,000 reagents. In the full data, about 4,000 (8%) were called active. 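Mouse siRNA library applied to hamster cells; one well for each siRNA.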 Unmarked entries are inactive. Reagents against one gene are numbered here.

"GFP, % of control","viability (ATP), % of control",Target gene,siRNA no.
69.4,67.3,Meis2,1
78.3,97.1,Meis2,2
45.8,75.1,Meis2,3
55.7,60.5,C030016D13Rik,1
75.9,81.4,C030016D13Rik,2
103,98.6,C030016D13Rik,3
89.2,67.1,Lce1g,1
50.1,52.9,Lce1g,2
82.4,70.1,Lce1g,3
64.5,104,Pigc,1
131 (active),96.7,Pigc,2
68.7,100,Pigc,3
51.2,64.7,Irf2bp1,1
89,66.7,Irf2bp1,2
85.7,55.8,Irf2bp1,3
163 (active),81.9,Tyr,1
82.3,68,Tyr,2
85.9,69.5,Tyr,3
47.6,49.1,Ubxn2b,1
58,78.1,Ubxn2b,2
73.2,69.3,Ubxn2b,3
98.1,66.6,Cckbr,1
48.7,48.1,Cckbr,2
72.1,62,Cckbr,3
90.1,71.2,Optn,1
85.4,64.5,Optn,2
78.4,139,Optn,3
93.7,111,Gfer,1
58.4,77.2,Gfer,2
63.9,62,Gfer,3
107,84.3,Lrrc14b,1
85.5,96.3,Lrrc14b,2
72.5,92.6,Lrrc14b,3
43.4,41.9,Or8k17,1
117,56.7,Or8k17,2
61.5,79.3,Or8k17,3

Part of the list above, reformatted:
| GFP, % of control | viability (ATP), % of control | Target gene | siRNA no. |
| --- | --- | --- | --- |
| 82.3 | 68 | Tyr | 2 |
| 85.9 | 69.5 | Tyr | 3 |
